Source: patent publication US6916471B2, “Red blood cells loaded with S-nitrosothiol and uses therefor” (Duke University, priority 1995, dated 2005)

Assay: Endogenous SNO-Hb and Hb(FeII)NO in blood by photolysis-chemiluminescence
Format: in vivo, rat
Description: To determine if SNO-Hb is naturally occuring in the blood, and if so, its relationship to the O2 transport capacity and nitrosylated-heme content of red cells, we developed an analytical approach to assay the S-nitrosothiol and nitrosyl-heme content of erythrocytes (Table 2). […] Hb was then purified from red cells and assayed for RSNO and (FeII)NO content. Arterial blood contained significant levels of SNO-Hb, whereas levels were virtually undetectable in venous blood (Table 2). […] The arterial-venous distribution seen for SNO-Hb was reversed in the case of Hb(FeII)NO, which was detected in higher concentrations in partially deoxygenated (venous) erythrocytes (Table 2). Accordingly, the proportion of nitrosylated protein thiol and heme appears to depend on the oxygenation state of the blood. Consistent with these findings, Wennmalm and coworkers have shown that Hb(FeII)NO forms mainly in venous (partially deoxygenated) blood (Wennmalm, A., et al., Br. J. Pharmacol., 106(3):507-508 (1992)). However, levels of Hb(FeII)NO in vivo are typically too low to be detected (by EPR) and SNO-Hb is EPR-silent (i.e. it is not paramagnetic). Thus, photolysis-chemiluminesence represents an important technological advance, as it is the first methodology capable of making quantitative and functional assessments of NO binding to Hb under normal physiological conditions.
Blood was obtained from the left ventricle (arterial) and jugular vein (venous) of anesthetized Sprague-Dawley rats. […] Red blood cells were isolated by centrifugation at 800 g, washed three times in phosphate buffered saline at 4° C., lysed by the addition of 4-fold excess volume of deionized water containing 0.5 mM EDTA, and desalted rapidly across G-25 columns according to the method of Penefsky at 4° C. In 24 rats, Hb samples were divided in two aliquots which were then treated or not treated with 10-fold excess HgCl2 over protein concentration as measured by the method of Bradford. Determinations of SNO-Hb and Hb(FeII)NO were made by photolysis-chemiluminescence as described below. In 12 additional rats, further verification of the presence of SNO-Hb was made by assaying for nitrite after HgCl2 treatment. Specifically, samples (with and without HgCl2) were separated across Amicon-3 (Centricon filters, m.w. cut off 3,000) at 4° C. for 1 h, and the low molecular weight fractions collected in airtight syringes containing 1 μM glutathione in 0.5 N HCl. Under these conditions, any nitrite present was converted to S-nitrosoglutathione, which was then measured by photolysis-chemiluminescence (detection limit ˜1 nM). SNO-Hb was present in all arterial samples, and levels determined by this method (286±33 nM) were virtually identical to and not statistically different from those shown in Table 2. In venous blood, SNO-Hb was undetectable (0.00±25 nM); levels were not statistically different from those given above.
A highly sensitive photolysis-chemiluminescence methodology was employed. A somewhat similar assay has been used for measuring RSNOs (S-nitrosothiols) in biological systems (Gaston, B., et al., (1993); Stamler, J. S., et al., Proc. Natl. Acad. Sci. USA 89:7674-7677 (1992)). The method involves photolytic liberation of NO from the thiol, which is then detected in a chemiluminesence spectrometer by reaction with ozone. The same principle of operation can be used to cleave (and measure) NO from nitrosyl-metal compounds (Antonini, E. Brunori, M. In Hemoglobin and Myoglobin in Their Reactions with Ligands, American Elsevier Publishing Co., Inc., New York, pp. 29-31 (1971)). With adjustment of flow rates in the photolysis cell, complete photolysis of the NO ligand of Hb(FeII)NO could be achieved. […] UV/VIS spectroscopy confirmed that NO remained attached to heme in the presence of excess HgCl2.

Substance | Hb(FeI)NO endogenous level in blood (Arterial (left ventricle)) [nm] | Hb(FeI)NO endogenous level in blood (Venous (jugular vein)) [nm] | SNO-Hb endogenous level in blood (Arterial (left ventricle)) [nM] | SNO-Hb endogenous level in blood (Venous (jugular vein)) [nM] | SNO-Hb level by nitrite assay after HgCl2 treatment (arterial samples) [nM] | SNO-Hb level by nitrite assay after HgCl2 treatment (venous blood) [nM]
Hb(FeI)NO: hemoglobin with NO bound at the heme, endogenous in blood | 536 ± 99 | 894 ± 126 |  |  |  | 
S-nitrosohemoglobin [SNO-Hb] |  |  | 311 ± 55 | 32 ± 14 | 286 ± 33 | 0.00 ± 25
